Drawing on paper PMC12509902, “PRMT1/PRMT5-Mediated Differential Arginine Methylation of CRIP1 Promotes the Recurrence of Small Cell Lung Cancer after Chemotherapy” (International Journal of Biological Sciences, 2025), this text covers binding for one molecule.

No constants are given. Whether binding was seen depends on the method and setting. Binding can be weak; no strength is given. Tags and fused reporters may be left off the sequences shown.

The target of this experiment is GST-p38. Description: pull-down; GST pull-down as described in ref. 23; GST-tagged protein expressed in BL21; Flag-tagged protein purified from HEK-293T by Flag affinity gel and 3× FLAG peptide elution; the paper calls the binding direct; both purified.

B1: GST-CRIP1, full-length (FL), wild type (natural protein, UniProt P50238 1-77, looked up)
chain: MPKCPKCNKEVYFAERVTSLGKDWHRPCLKCEKCGKTLTSGGHAEHEGKPYCNHPCYAAMFGPKGFGRGGAESHTFK
notes: Cysteine-rich intestinal protein 1 (CRIP1), full length, in pGEX-6P-1; also called GST-CRIP1 WT; source: E. coli BL21, induced with 1 mM IPTG
B1: the binding entry is reported as “binds”.
